Reference: paper PMC7948397
No constants are given. Whether binding was seen depends on the method and setting. Binding can be weak; no strength is given.

Protein sequences, listed by entry. Tags and fused reporters are not part of them. Lines headed by an entry give the natural chain unless they say otherwise; changes in a name come on top. Residues count along the entry.
UniProt P17927: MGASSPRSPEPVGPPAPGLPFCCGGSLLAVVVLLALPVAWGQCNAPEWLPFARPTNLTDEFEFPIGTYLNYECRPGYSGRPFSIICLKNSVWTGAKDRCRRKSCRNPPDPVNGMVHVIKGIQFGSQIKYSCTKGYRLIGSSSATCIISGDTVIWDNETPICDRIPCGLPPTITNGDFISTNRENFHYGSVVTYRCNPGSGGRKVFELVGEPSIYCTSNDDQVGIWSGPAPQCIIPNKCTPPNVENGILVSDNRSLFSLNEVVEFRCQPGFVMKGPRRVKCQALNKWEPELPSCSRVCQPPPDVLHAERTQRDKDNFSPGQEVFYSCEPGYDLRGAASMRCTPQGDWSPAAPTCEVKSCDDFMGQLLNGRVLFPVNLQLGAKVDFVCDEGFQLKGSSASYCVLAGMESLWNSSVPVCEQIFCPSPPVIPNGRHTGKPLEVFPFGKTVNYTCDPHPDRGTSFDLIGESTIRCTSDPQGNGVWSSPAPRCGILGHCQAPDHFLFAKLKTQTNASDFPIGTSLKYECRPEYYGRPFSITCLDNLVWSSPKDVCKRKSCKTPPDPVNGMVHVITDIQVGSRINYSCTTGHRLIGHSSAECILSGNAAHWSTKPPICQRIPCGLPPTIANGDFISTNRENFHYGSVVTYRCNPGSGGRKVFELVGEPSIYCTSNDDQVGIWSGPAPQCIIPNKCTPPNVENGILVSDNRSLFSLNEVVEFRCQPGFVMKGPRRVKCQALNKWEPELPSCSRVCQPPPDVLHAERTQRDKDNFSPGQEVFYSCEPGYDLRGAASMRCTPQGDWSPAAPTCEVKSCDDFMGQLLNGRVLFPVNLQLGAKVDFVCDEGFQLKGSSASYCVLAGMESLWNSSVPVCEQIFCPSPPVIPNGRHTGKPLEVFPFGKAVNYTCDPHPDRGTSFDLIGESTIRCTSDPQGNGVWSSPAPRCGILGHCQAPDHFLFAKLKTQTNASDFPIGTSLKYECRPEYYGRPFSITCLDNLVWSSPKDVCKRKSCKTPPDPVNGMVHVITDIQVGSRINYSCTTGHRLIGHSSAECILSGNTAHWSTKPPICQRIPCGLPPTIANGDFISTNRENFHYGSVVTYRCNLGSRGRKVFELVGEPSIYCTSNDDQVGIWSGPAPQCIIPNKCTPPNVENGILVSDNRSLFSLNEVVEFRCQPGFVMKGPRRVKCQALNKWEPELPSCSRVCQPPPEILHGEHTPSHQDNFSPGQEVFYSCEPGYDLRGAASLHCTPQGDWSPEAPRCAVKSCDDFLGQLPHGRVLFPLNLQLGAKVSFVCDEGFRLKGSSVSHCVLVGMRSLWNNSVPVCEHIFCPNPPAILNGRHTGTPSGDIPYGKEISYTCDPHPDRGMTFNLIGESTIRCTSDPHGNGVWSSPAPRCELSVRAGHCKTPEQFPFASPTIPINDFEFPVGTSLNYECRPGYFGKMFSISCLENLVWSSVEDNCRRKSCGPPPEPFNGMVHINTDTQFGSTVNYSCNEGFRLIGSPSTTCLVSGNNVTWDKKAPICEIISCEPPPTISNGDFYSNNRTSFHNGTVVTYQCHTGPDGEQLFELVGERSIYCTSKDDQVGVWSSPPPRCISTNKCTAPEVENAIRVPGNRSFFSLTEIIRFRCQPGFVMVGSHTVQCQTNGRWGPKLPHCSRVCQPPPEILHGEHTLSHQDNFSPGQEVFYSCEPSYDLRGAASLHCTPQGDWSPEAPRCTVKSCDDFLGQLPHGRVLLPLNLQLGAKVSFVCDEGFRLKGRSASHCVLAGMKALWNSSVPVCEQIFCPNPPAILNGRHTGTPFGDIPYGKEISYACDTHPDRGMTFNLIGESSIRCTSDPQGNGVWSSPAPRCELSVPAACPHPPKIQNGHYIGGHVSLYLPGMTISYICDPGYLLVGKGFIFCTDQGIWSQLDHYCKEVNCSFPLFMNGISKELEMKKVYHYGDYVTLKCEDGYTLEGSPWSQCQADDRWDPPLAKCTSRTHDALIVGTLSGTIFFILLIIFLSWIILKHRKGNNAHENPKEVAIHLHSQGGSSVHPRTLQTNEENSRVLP
HuCR1(1971), soluble full-length extracellular domain of human complement receptor 1 (LHR-A, -B, -C and -D): residues 42-1971 of P17927
HuCR1(1392)/CSL040, soluble human complement receptor 1 truncated at amino acid 1392 (LHR-A, LHR-B and LHR-C): residues 42-1392 of P17927
UniProt P0C0L4: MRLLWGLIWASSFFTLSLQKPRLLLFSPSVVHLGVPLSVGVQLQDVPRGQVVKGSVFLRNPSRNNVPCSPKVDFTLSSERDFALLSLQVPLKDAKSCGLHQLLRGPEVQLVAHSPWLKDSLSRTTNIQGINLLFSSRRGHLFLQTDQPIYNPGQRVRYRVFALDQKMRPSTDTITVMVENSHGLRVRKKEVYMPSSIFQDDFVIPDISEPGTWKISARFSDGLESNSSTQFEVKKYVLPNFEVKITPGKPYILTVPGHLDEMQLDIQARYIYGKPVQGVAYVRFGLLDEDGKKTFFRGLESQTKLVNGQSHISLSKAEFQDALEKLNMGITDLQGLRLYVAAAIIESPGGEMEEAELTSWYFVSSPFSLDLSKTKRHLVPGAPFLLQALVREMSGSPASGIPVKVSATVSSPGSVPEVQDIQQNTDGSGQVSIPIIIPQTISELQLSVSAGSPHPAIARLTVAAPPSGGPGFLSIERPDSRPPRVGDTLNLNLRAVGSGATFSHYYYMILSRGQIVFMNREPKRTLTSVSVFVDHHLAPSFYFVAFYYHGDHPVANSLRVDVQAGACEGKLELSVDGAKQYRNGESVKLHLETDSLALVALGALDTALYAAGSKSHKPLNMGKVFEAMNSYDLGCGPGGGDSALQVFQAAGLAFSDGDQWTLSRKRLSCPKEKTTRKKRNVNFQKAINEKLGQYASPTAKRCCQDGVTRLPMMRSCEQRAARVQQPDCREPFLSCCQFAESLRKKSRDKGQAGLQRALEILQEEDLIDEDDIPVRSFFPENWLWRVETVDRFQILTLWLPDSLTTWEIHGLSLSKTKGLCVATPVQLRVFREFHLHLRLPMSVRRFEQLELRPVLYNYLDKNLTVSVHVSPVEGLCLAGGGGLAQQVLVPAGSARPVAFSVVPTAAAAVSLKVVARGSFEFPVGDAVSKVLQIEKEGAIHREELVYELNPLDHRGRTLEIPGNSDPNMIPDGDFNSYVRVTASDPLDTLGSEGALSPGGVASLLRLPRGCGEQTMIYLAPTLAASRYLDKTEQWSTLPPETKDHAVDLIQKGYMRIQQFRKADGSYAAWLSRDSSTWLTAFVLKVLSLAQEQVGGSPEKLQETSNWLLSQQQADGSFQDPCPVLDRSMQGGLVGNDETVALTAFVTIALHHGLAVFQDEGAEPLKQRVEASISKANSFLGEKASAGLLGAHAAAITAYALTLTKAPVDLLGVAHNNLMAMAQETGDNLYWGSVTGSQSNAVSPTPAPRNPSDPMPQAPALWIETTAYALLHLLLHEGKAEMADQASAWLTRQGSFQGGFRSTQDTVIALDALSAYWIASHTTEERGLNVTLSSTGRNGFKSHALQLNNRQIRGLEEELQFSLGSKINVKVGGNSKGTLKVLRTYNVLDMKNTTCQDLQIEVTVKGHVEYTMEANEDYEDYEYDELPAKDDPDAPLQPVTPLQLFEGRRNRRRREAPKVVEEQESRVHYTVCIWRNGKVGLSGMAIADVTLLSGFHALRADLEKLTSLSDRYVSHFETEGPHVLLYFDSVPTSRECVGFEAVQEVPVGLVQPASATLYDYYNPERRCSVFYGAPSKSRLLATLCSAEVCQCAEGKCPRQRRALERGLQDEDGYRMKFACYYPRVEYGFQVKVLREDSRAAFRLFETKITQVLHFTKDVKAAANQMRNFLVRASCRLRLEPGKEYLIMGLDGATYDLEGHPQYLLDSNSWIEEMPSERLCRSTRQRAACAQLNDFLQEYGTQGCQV

Legend:
[1] = biological target: HuCR1(1392)/CSL040, soluble human complement receptor 1 truncated at amino acid 1392 (LHR-A, LHR-B and LHR-C) (human) (UniProt P17927); assay: SPR; His-tagged CSL040 or HuCR1(1971) captured on a Ni-NTA chip to 75-100 RU, C3b or C4b injected as analyte; Biacore T200, 37 °C; 10 mM Hepes, 150 mM NaCl, 0.1% bovine serum albumin, pH 7.3; 1:1 model with a term for mass transport; both purified
[2] = biological target: HuCR1(1971), soluble full-length extracellular domain of human complement receptor 1 (LHR-A, -B, -C and -D) (human) (UniProt P17927); assay: as above

- binding [1]: binds
- binding [2]: binds
Substance: plasma-derived human C4b (from UniProt P0C0L4) (ligand)
